Taken from: PubChem BioAssay AID1671195 (Yale University, 2021)
The deposit covers about 22,000 reagents; shown is a part drawn at random. About 1,510 of all reagents (6.9%) were called active. 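Active includes knockdowns raising or lowering LDL uptake; positive z-scores mean more uptake, negative mean less.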 Reagents against one gene are numbered here.

- Assay: 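Regulators of LDL receptor activity judged by labelled LDL uptake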 (primary screen)
- System: human Huh7 hepatoma cells
- Reagent: siRNA pool against human genes, 18 nM
- Time to read-out: about 2 to 2.5 days of knockdown, then 8 h LDL uptake
- Conditions: DiI-labelled LDL at 30 µg/ml for 8 h, in lipoprotein-deficient serum medium
- Detection: 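Fluorescent LDL signal imaged in cells, scaled to the plate median, robust z-score for each replicate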
- Reading the numbers: robust z-score: higher = more LDL uptake after knockdown
- Hit rule: 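a gene counts as active if at least two replicate z-scores exceed ±2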

robust z-score, replicate 1 | robust z-score, replicate 2 | robust z-score, replicate 3 | outcome | Gene | reagent no.
-1.2 | -1.14 | -0.933 | inactive | CYP2A6 (cytochrome P450 family 2 subfamily A member 6) | 1
0.472 | 0.182 | 0.256 | inactive | ZNF559 (zinc finger protein 559) | 1
-1.5 | -1.83 | -1.61 | inactive | ZNF496 (zinc finger protein 496) | 1
0.012 | -0.242 | -0.284 | inactive | LINC00469 (long independently transcribed non-coding RNA 469) | 1
-0.118 | 0.559 | 0.301 | inactive | PLCL1 (phospholipase C like 1 (inactive)) | 1
-0.0157 | 0.0332 | 0.218 | inactive | LOC440558 (retired record) | 1
1.01 | 0.871 | 0.85 | inactive | PRR14L (proline rich 14 like) | 1
-0.481 | -1.74 | 1.75 | inactive | SPAG8 (sperm associated antigen 8) | 1
0.874 | 0.806 | 1.31 | inactive | SHOC2 (SHOC2 leucine rich repeat scaffold protein) | 1
0.197 | 0.0596 | 0.192 | inactive | FBXO16 (F-box protein 16) | 1
-0.186 | 1.01 | 1.23 | inactive | SPRR2D (small proline rich protein 2D) | 1
0.288 | 0.577 | 0.0209 | inactive | OR5D13 (olfactory receptor family 5 subfamily D member 13) | 1
2.72 | 2.83 | 2.59 | active | SLC6A4 | 1
-0.0245 | 0.315 | 0.0621 | inactive | APOL4 (apolipoprotein L4) | 1
-0.599 | -0.236 | 0.443 | inactive | MAGI2 | 1
-0.791 | -0.429 | -0.641 | inactive | JAKMIP3 (Janus kinase and microtubule interacting protein 3) | 1
1.43 | 2.17 | 1.52 | inactive | TMEM156 (transmembrane protein 156) | 1
-0.941 | -1.41 | -1.38 | inactive | MCEE (methylmalonyl-CoA epimerase) | 1
-0.425 | -0.676 | -0.473 | inactive | ITPKA (inositol-trisphosphate 3-kinase A) | 1
0.944 | 1.02 | -1.56 | inactive | SYT17 (synaptotagmin 17) | 1
-0.157 | -0.484 | 0.533 | inactive | LOC388429 (retired record) | 1
2.69 | 2.32 | 1.75 | active | ANG (angiogenin) | 1
-2.05 | -1.15 | -0.493 | inactive | ZNF652 (zinc finger protein 652) | 1
0.194 | 0.255 | 0.406 | inactive | OR5B3 (olfactory receptor family 5 subfamily B member 3) | 1
-0.164 | -0.599 | 0.268 | inactive | TXNDC12 (thioredoxin domain containing 12) | 1
0.867 | 0.855 | 0.902 | inactive | ZFP36L2 (ZFP36 like 2 zinc finger CCCH-type) | 1
0.617 | 0.675 | 0.366 | inactive | HMOX1 (heme oxygenase 1) | 1

Entries listed so far whose gene name begins with M or m (2):
robust z-score, replicate 1 | robust z-score, replicate 2 | robust z-score, replicate 3 | outcome | Gene | reagent no.
-0.599 | -0.236 | 0.443 | inactive | MAGI2 | 1
-0.941 | -1.41 | -1.38 | inactive | MCEE (methylmalonyl-CoA epimerase) | 1

Additional records follow:
robust z-score, replicate 1 | robust z-score, replicate 2 | robust z-score, replicate 3 | outcome | Gene | reagent no.
-1.05 | -0.0463 | -0.869 | inactive | SMAP2 (small ArfGAP2) | 1
-1.49 | -0.952 | -0.988 | inactive | CMTR1 (cap methyltransferase 1) | 1
2.93 | 1.54 | 0.47 | inactive | ERC2 (ELKS/RAB6-interacting/CAST family member 2) | 1
-1.55 | -1.59 | -1.45 | inactive | RPL6P31 (ribosomal protein L6 pseudogene 31) | 1
0.439 | 0.293 | -0.335 | inactive | IFT140 (intraflagellar transport 140) | 1
-2.09 | -1.45 | -2.4 | active | TIMM13 (translocase of inner mitochondrial membrane 13) | 1
0.00681 | -0.646 | 0.601 | inactive | KRR1 (KRR1 small subunit processome component) | 1
1.83 | 1.08 | 0.521 | inactive | ZNF641 (zinc finger protein 641) | 1
-0.774 | -0.789 | -0.91 | inactive | ZNF444 (zinc finger protein 444) | 1
-0.478 | -0.534 | -0.45 | inactive | LOC389321 (retired record) | 1
0.232 | -1.92 | -1.27 | inactive | RSRC1 (arginine and serine rich coiled-coil 1) | 1
1.41 | 1.53 | 1.8 | inactive | LAMB2 (laminin subunit beta 2) | 1
0.32 | 0.0724 | 0.159 | inactive | ASXL1 (ASXL transcriptional regulator 1) | 1
0.55 | 1.8 | 1.13 | inactive | EPB41L4B (erythrocyte membrane protein band 4.1 like 4B) | 1
0.0577 | -0.191 | -0.404 | inactive | CST7 (cystatin F) | 1
-0.881 | -0.461 | -0.59 | inactive | SCG5 (secretogranin V) | 1
-0.0179 | 0.0748 | -0.865 | inactive | ARPC5 (actin related protein 2/3 complex subunit 5) | 1
-0.936 | -0.196 | -0.444 | inactive | LOC439999 (retired record) | 1
0.531 | 1.37 | -0.204 | inactive | FLI1 (Fli-1 proto-oncogene, ETS transcription factor) | 1
1.01 | 2.13 | -0.517 | inactive | TMEM165 (transmembrane protein 165) | 1
-0.419 | -0.177 | -0.459 | inactive | ALPK3 (alpha kinase 3) | 1
-1.95 | -2.33 | -1.72 | active | USP9Y (ubiquitin specific peptidase 9 Y-linked) | 1
-1.21 | -0.989 | -0.805 | inactive | YBX2 (Y-box binding protein 2) | 1
0.588 | 0.723 | 0.596 | inactive | TIAM1 (TIAM Rac1 associated GEF 1) | 1
-0.796 | -0.636 | -0.646 | inactive | LOC389369 (retired record) | 1
0.207 | -0.726 | 0.882 | inactive | FAIM (Fas apoptotic inhibitory molecule) | 1
-0.166 | 1.83 | 0.363 | inactive | GUCY1B1 (guanylate cyclase 1 soluble subunit beta 1) | 1
0.487 | -0.0738 | 0.598 | inactive | PLA2G4E (phospholipase A2 group IVE) | 1
0.0431 | -0.0496 | 0.431 | inactive | PLA2G4E (phospholipase A2 group IVE) | 2
1.84 | 4.05 | 2.71 | active | SQLE (squalene epoxidase) | 1
0.178 | 0.544 | 0.152 | inactive | FNDC9 (fibronectin type III domain containing 9) | 1
0.0371 | 1.06 | 0.684 | inactive | PCDHB3 (protocadherin beta 3) | 1
0.0545 | 0.0823 | -0.909 | inactive | AMZ2P1 (AMZ2 pseudogene 1) | 1
-0.0897 | -0.0575 | 0.356 | inactive | ACP3 (acid phosphatase 3) | 1
0.233 | -0.179 | 0.591 | inactive | SLCO4A1 | 1
-0.355 | 0.367 | -0.0283 | inactive | LOC439961 (retired record) | 1
-1.13 | -1.06 | -1.13 | inactive | LCN9 (lipocalin 9) | 1
-1.46 | -1.94 | -1.56 | inactive | SLCO2A1 | 1
-0.992 | -1.1 | -0.448 | inactive | N4BP3 (NEDD4 binding protein 3) | 1
1.81 | 1.7 | 1.73 | inactive | FAM32A (family with sequence similarity 32 member A) | 1
2.45 | 3.24 | 2.59 | active | LCN2 (lipocalin 2) | 1
